Experimental findings from the supplement of paper PMC10849652 are described below.

Protein sequences, listed by entry. Tags and fused reporters are not part of them. Lines headed by an entry give the natural chain unless they say otherwise; changes in a name come on top.
UniProt Q53EU6: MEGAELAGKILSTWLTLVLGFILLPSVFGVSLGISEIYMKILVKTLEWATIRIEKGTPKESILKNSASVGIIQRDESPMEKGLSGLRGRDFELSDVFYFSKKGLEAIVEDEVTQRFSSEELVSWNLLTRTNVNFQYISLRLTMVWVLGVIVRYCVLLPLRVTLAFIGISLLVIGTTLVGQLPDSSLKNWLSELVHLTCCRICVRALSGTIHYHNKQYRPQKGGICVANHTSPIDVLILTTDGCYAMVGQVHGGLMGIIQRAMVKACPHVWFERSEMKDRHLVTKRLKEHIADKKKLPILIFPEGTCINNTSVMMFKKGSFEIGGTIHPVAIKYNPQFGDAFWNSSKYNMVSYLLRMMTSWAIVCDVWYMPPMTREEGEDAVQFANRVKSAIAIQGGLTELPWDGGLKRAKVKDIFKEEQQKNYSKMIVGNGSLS
UniProt Q8IW92: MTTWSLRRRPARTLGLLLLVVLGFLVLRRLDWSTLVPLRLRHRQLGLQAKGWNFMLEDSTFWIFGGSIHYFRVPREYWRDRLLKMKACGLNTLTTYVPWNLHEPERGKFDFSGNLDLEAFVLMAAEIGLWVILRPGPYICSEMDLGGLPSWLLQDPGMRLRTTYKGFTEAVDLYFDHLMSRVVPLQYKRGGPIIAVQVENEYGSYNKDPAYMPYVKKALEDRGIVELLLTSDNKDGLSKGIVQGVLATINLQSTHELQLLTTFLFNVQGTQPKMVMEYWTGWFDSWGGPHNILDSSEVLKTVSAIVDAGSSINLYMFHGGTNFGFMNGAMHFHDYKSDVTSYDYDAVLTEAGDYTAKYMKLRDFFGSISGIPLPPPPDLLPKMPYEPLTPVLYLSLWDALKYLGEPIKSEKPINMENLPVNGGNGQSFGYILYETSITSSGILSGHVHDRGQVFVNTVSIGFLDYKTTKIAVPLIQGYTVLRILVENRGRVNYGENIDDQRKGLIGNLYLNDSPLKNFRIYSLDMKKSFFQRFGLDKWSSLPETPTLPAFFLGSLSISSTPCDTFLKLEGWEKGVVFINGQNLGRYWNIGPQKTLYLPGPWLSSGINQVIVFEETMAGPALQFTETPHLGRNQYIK
UniProt Q9Y3E0: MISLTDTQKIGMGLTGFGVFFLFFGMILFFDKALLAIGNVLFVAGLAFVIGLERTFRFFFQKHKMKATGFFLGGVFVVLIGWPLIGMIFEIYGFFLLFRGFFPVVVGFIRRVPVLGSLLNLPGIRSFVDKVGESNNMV
UniProt P15104, whole entry, looked up: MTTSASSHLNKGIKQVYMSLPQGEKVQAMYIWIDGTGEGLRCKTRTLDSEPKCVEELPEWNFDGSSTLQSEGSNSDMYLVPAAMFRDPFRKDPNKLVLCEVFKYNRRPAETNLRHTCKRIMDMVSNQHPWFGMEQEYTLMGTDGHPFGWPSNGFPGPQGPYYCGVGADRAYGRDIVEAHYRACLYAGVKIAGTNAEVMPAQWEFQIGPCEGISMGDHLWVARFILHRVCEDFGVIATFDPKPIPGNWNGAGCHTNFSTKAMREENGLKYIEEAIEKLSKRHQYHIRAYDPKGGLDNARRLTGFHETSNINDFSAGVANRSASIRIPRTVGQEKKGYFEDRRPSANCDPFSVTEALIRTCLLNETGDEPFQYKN
UniProt Q92896: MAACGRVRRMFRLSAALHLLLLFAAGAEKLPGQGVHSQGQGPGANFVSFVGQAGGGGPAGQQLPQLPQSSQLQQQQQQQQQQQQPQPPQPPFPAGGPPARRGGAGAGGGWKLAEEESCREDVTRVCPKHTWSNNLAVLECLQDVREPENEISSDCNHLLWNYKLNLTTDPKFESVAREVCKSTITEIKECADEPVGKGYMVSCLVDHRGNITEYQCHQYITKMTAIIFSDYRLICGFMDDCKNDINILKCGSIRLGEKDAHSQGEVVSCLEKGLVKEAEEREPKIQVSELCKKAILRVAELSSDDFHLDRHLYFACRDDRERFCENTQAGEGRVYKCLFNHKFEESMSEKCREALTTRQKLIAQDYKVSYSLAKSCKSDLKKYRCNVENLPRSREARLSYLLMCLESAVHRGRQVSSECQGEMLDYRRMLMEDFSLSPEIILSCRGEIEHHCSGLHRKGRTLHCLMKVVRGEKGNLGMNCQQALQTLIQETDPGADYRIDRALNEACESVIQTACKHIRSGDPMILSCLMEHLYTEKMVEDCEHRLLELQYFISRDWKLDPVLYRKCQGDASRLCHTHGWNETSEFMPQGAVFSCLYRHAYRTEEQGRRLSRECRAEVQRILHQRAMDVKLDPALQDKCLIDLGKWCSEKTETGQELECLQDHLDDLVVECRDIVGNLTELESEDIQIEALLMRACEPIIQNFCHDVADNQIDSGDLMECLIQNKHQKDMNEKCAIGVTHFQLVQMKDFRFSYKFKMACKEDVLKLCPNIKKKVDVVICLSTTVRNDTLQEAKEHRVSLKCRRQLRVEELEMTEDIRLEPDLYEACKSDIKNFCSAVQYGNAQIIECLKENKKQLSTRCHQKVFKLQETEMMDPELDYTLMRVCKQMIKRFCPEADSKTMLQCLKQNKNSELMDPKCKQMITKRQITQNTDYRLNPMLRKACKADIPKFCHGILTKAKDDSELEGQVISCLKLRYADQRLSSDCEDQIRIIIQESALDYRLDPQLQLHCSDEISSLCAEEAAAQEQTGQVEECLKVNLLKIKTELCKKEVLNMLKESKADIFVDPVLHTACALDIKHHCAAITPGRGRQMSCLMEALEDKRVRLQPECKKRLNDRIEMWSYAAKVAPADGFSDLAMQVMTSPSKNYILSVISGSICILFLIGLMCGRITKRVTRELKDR
UniProt P17174: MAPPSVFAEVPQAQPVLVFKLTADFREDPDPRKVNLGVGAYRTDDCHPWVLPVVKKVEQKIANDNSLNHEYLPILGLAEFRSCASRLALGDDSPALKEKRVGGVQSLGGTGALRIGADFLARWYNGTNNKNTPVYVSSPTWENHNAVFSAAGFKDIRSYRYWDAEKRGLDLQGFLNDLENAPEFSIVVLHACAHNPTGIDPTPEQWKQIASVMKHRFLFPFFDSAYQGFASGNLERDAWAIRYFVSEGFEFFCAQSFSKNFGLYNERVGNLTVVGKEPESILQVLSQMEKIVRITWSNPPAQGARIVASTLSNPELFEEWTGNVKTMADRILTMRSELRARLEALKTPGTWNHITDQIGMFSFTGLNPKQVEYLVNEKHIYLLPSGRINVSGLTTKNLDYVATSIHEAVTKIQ
UniProt Q4ZG55: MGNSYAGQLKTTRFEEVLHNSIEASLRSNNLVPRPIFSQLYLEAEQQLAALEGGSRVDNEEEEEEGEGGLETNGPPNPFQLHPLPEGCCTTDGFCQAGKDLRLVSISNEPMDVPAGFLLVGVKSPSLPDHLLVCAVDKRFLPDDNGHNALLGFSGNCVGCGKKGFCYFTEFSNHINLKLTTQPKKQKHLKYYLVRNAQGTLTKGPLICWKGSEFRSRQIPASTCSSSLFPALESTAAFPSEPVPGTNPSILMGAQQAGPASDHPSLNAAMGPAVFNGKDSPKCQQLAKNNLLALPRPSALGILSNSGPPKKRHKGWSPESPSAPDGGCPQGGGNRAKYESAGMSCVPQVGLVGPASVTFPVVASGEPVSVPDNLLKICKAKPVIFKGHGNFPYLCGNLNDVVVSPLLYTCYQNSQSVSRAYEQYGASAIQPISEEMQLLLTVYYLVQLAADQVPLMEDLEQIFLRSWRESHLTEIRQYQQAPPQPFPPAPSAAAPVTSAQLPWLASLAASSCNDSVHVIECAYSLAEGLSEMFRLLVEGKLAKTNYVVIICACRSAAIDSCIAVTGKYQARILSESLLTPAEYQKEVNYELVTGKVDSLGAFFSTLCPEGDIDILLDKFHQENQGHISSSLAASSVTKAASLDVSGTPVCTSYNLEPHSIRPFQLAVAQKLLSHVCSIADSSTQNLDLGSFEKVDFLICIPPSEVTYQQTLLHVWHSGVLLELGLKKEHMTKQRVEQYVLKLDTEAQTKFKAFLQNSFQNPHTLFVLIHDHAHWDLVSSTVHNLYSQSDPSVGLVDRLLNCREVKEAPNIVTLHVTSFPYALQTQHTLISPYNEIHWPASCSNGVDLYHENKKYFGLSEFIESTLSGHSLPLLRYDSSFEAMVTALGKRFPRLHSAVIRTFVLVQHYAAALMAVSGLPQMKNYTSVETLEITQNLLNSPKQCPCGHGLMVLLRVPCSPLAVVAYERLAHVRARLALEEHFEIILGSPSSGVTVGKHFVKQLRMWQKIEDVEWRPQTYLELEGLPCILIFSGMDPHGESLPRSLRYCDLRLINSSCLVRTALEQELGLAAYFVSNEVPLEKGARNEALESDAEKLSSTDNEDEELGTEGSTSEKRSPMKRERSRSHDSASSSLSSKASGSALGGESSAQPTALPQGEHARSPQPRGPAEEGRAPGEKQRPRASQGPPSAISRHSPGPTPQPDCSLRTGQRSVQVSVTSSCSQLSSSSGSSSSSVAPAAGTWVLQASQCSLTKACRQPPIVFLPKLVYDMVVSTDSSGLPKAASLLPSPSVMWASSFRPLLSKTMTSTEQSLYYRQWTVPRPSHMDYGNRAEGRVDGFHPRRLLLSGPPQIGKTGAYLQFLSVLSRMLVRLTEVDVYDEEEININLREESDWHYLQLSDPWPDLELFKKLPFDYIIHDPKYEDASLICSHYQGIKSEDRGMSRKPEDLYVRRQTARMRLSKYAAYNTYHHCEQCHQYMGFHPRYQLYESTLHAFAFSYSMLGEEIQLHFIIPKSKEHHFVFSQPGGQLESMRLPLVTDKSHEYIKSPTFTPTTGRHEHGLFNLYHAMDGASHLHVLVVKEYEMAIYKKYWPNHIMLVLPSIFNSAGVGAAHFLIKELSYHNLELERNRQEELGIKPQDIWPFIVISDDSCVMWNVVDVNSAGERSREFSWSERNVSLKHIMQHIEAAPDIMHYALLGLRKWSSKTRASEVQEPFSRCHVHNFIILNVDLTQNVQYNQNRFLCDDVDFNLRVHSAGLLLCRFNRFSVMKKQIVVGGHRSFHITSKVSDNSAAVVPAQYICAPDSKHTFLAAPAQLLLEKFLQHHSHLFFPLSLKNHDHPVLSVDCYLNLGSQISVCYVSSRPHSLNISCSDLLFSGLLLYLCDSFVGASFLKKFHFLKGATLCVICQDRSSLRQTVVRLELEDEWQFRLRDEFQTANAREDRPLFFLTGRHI
UniProt P46926: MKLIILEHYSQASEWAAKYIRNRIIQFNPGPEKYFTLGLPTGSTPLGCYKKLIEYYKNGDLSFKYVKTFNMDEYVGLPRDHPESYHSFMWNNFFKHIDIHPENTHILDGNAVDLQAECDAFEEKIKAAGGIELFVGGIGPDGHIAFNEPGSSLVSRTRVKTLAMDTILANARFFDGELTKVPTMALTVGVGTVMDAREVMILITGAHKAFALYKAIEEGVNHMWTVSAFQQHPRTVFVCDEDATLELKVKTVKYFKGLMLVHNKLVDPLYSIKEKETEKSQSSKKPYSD
UniProt Q8WWB7: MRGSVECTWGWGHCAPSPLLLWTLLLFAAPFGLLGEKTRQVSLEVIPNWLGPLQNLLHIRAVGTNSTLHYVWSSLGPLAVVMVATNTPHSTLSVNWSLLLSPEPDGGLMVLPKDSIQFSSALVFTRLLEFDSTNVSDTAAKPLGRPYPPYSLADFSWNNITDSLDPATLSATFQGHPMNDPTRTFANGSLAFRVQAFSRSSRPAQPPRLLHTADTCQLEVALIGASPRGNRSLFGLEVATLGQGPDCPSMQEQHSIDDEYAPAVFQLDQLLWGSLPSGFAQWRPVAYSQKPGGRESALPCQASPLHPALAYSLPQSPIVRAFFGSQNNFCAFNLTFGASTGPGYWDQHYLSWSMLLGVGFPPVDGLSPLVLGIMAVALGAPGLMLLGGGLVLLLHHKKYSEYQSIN
UniProt Q9BXV9: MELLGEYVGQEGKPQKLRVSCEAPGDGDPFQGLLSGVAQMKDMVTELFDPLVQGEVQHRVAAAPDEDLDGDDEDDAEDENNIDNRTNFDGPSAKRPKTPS
UniProt P62879, whole entry, looked up: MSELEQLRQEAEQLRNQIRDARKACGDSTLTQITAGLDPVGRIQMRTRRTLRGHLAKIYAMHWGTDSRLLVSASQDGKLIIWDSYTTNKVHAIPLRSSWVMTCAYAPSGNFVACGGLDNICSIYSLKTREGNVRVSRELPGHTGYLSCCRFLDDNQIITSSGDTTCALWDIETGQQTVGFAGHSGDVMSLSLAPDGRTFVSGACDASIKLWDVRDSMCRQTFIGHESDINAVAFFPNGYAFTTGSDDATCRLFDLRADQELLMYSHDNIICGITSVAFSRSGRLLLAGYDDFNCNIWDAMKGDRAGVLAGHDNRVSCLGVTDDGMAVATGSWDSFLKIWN
UniProt Q9BRX5: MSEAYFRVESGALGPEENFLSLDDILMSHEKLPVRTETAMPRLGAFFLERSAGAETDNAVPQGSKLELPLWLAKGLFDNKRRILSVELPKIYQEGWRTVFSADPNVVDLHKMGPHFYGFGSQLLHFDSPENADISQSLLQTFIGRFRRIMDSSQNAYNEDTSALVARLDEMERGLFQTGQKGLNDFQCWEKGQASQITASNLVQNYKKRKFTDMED

The list shows a part of the results.

Compound in the first test: COc1cc(C(=O)O)ccc1NC(=O)[C@@H]1N[C@@H](CC(C)(C)C)[C@](C#N)(c2ccc(Cl)cc2F)[C@H]1c1cccc(Cl)c1F [idasanutlin]
The test can be described thus: log2 fold change, soluble protein after heating vs DMSO (PISA); higher = thermal stabilisation; K562 cells, 10 uM, 30 min; active = over 0.2 and 3.5 SD of the protein, either way, in both replicates (recomputed). The essentials:
(§1)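 Soluble protein was defined as the supernatant after 21,000xg for 90 min. It came from K562 cells at 2×10^6 cells/mL given 10 μM compound for 30 min, heated in aliquots for 3 min across 48°C-58°C, pooled, and extracted in PBS with 0.5% NP-40 at 4°C, and was quantified by TMTpro 16plex LC-MS/MS with equalised channel sums. Thermal stability against control samples, from duplicates, is reported as log2 fold change.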
In the case of GMEB1 (UniProt Q9Y692), the log2 fold change is inactive: 0.027. On the same count and under the same terms, then GLO1 (UniProt Q04760), with inactive: -0.027; and GOPC (UniProt Q9HD26), with inactive: 0.007; and GON4L (UniProt Q3T8J9), with inactive: 0.165. On the same count and under the same terms, then GNB4 (UniProt Q9HAV0), with inactive: 0.08; and GPN3 isoform 2 (UniProt Q9UHW5), with inactive: -0.062. The same measure, in the same setting: then GMPS (UniProt P49915), with inactive: -0.095; and GINS1 (UniProt Q14691), with inactive: 0.01; and GIGYF2 (UniProt Q6Y7W6), with inactive: 0. GLS (UniProt O94925): the log2 fold change was inactive: -0.192. The same measure, in the same setting: then GPAT3 (UniProt Q53EU6), with inactive: -0.036; and GNPTAB (UniProt Q3T906), with inactive: 0.006; and GMPR (UniProt P36959), with inactive: -0.047. On to GLB1L2 (UniProt Q8IW92), for which the log2 fold change is inactive: -0.04. On the same count and under the same terms, then GOLT1B (UniProt Q9Y3E0), with inactive: -0.014; and GMEB2 (UniProt Q9UKD1), with inactive: 0.073.

For the target GPD1L (UniProt Q8N335), the log2 fold change was inactive: -0.033.

On to GMFG (UniProt O60234), for which the log2 fold change is inactive: -0.057. The same measure, in the same setting: for GNPNAT1 (UniProt Q96EK6) the value was inactive: -0.043.

As for GOT2 (UniProt P00505), the log2 fold change is inactive: -0.007.

Take GLUL (UniProt P15104): the log2 fold change is inactive: 0.032. On to GLG1 isoform 2 (UniProt Q92896), for which the log2 fold change is inactive: -0.01. Still for that read-out and setting: for GLYR1 (UniProt Q49A26) the value was inactive: 0; for GOT1 (UniProt P17174), inactive: 0.014.

GMNN (UniProt O75496): the log2 fold change was inactive: -0.067. On the same count and under the same terms, for GP1BB isoform 2 (UniProt P13224) the value was inactive: 0.042; for GLRX5 (UniProt Q86SX6), inactive: 0.015; for GLUD1 (UniProt P00367), inactive: -0.047. Turning to GREB1 (UniProt Q4ZG55), the log2 fold change was inactive: -0.023.

Regarding GNPDA1 (UniProt P46926), the log2 fold change was inactive: -0.018.

GLMP (UniProt Q8WWB7): the log2 fold change was inactive: -0.086. On the same count and under the same terms, then GLRX3 (UniProt O76003), with inactive: -0.001; and GNPAT (UniProt O15228), with inactive: -0.05. The same measure, in the same setting: then GON7 (UniProt Q9BXV9), with inactive: 0.125; and GOLGA7B (UniProt Q2TAP0), with inactive: -0.077. The same measure, in the same setting: for GNB2 (UniProt P62879) the value was inactive: -0.058; for GOLGA7 (UniProt Q7Z5G4), inactive: -0.026. With GINS3 (UniProt Q9BRX5), the log2 fold change was inactive: -0.065.

Compound in another test: COc1cc(Nc2ncc3c(n2)-c2ccc(Cl)cc2C(c2c(F)cccc2OC)=NC3)ccc1C(=O)O [alisertib]
Described as above. The method in brief: as §1
GMEB1 (UniProt Q9Y692): the log2 fold change was inactive: -0.041.

As to GLO1 (UniProt Q04760), the log2 fold change is inactive: -0.1.

Take GOPC (UniProt Q9HD26): the log2 fold change is inactive: -0.026. The same measure, in the same setting: then GON4L (UniProt Q3T8J9), with inactive: -0.058; and GNB4 (UniProt Q9HAV0), with inactive: -0.103; and GPN3 isoform 2 (UniProt Q9UHW5), with inactive: -0.023. On the same count and under the same terms, then GMPS (UniProt P49915), with inactive: -0.055. Turning to GINS1 (UniProt Q14691), the log2 fold change was inactive: 0.027. Same read-out and setting: then GIGYF2 (UniProt Q6Y7W6), with inactive: -0.023. The same measure, in the same setting: for GLS (UniProt O94925) the value was inactive: 0.143; for GPAT3 (UniProt Q53EU6), inactive: -0.097. Take GNPTAB (UniProt Q3T906): the log2 fold change was inactive: -0.103.

Take GMPR (UniProt P36959): the log2 fold change is inactive: -0.033. Still for that read-out and setting: for GLB1L2 (UniProt Q8IW92) the value was inactive: -0.016. Same read-out and setting: for GOLT1B (UniProt Q9Y3E0) the value was inactive: 0.014. Same read-out and setting: then GMEB2 (UniProt Q9UKD1), with inactive: -0.009. On to GPD1L (UniProt Q8N335), for which the log2 fold change is inactive: 0.01. The same measure, in the same setting: then GMFG (UniProt O60234), with inactive: -0.089. On the same count and under the same terms, then GNPNAT1 (UniProt Q96EK6), with inactive: -0.052.

As to GOT2 (UniProt P00505), the log2 fold change was inactive: -0.066. Still for that read-out and setting: for GLUL (UniProt P15104) the value was inactive: -0.013. Same read-out and setting: then GLG1 isoform 2 (UniProt Q92896), with inactive: -0.018; and GLYR1 (UniProt Q49A26), with inactive: 0.071. On the same count and under the same terms, for GOT1 (UniProt P17174) the value was inactive: -0.058. As for GMNN (UniProt O75496), the log2 fold change is inactive: -0.056. The same measure, in the same setting: for GP1BB isoform 2 (UniProt P13224) the value was inactive: 0.001; for GLRX5 (UniProt Q86SX6), inactive: -0.034; for GLUD1 (UniProt P00367), inactive: -0.039. On the same count and under the same terms, then GNPDA1 (UniProt P46926), with inactive: -0.013; and GLMP (UniProt Q8WWB7), with inactive: -0.076; and GLRX3 (UniProt O76003), with inactive: -0.063. Still for that read-out and setting: then GNPAT (UniProt O15228), with inactive: -0.038; and GON7 (UniProt Q9BXV9), with inactive: -0.022. For the target GOLGA7B (UniProt Q2TAP0), the log2 fold change was inactive: -0.031.

Regarding GNB2 (UniProt P62879), the log2 fold change was inactive: -0.068. Same read-out and setting: then GOLGA7 (UniProt Q7Z5G4), with inactive: 0.013; and GINS3 (UniProt Q9BRX5), with inactive: 0.073.
